{"source": "patent US10233213", "about": "(dated 2019)"}
{"assay": "general procedure: peptide synthesis; succinimidyl carbamate building blocks (Boc-protected in solution); azide-protect", "conditions": "coupling step", "units": {"step yield": "%"}}
{"substance": "Boc Lys(2ClZ)^u-Leu-Lys(2ClZ)^u-Pro^u-N3", "step yield": 68}
{"substance": "Boc Leu-Lys(2ClZ)^u-Leu-Lys(2ClZ)^u-Pro^u-N3", "step yield": 65}
{"substance": "Boc-Leu^u-Glu(OBz)^u-Leu^u-Lys(2ClZ)^u-Ala^u-NHMe", "step yield": 67}
{"substance": "Boc-Leu^u-Glu(OBn)^u-Leu^u-Lys(2ClZ)^u-Pro^u-Leu^u-Glu(OBn)^u-Leu^u-Lys(2ClZ)^u-Ala^u-NHMe", "step yield": 56}
{"substance": "Boc-Glu(OBn)^u-Leu^u-Lys(2ClZ)^u-Ala^u-NHMe", "step yield": 48}
